About 4,000 (1%) of roughly 390,000 compounds were called active. Inconclusive results, whose numbers are uncertain, are shown with a selection of clear calls. Calls come from the whole dose curve; as a rule, active = well fitted inhibition curve with a large enough effect; inconclusive = small, poorly fitted or top-dose-only effect, or another doubt; inactive = no such curve, though single readings can be large or run the other way. Potencies beside an inconclusive call are fits to weak or partial responses and may not hold up.
What follows are compounds tested against DNA polymerase iota (Homo sapiens) (UniProt Q9UNA4) (assay: qHTS for Inhibitors of Polymerase Iota). Details: Pol iota fluorescent replication assay, 10 min; series mostly up to 115 µM.
Summary of the method: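 Fluorescent replication assay read twice, at 0 min and 10 min after adding 50 nM (final) substrate. Enzyme (10 nM) and compounds were first incubated 15 min at room temperature; enzyme-free buffer wells were negative controls.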
Potency is the fitted concentration of half-maximal effect.

By UniProt entry, the sequences of proteins in these tests, tags left out. Where a name states a change or a piece, a line headed by the entry shows the natural chain unless it says otherwise.
UniProt Q9UNA4: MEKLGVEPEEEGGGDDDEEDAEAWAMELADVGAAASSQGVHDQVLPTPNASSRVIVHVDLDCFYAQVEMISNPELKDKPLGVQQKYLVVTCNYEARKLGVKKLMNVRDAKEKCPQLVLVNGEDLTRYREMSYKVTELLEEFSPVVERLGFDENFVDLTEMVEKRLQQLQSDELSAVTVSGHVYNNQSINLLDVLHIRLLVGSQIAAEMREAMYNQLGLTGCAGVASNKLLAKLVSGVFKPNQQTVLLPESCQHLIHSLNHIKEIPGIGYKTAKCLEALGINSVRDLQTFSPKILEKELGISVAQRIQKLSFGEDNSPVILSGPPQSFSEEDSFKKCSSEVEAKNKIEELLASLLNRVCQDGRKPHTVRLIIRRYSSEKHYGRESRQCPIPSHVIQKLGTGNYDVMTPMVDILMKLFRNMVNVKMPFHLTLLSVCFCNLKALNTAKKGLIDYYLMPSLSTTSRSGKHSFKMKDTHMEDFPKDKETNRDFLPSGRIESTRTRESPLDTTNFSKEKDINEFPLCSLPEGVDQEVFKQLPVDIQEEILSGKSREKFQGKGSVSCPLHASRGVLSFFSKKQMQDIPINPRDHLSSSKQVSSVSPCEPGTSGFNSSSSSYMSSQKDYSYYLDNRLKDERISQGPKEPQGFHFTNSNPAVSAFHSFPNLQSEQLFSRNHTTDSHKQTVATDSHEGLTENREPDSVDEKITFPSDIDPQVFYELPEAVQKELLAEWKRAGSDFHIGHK

Potency, active:
O=c1ccc2ccc(O)c(O)c2o1 23.8 µM, O=C(CCc1ccc(O)c(O)c1)N/N=C/c1ccc2c(c1)OCO2 79.4 µM

Potency, inconclusive:
O=C(CN1C(=O)c2ccccc2C1=O)Nc1sc2c(c1C(=O)NCc1ccco1)CCCC2 15.8 µM [inhibitor, partial curve, poor fit], CCOc1ccc(C(=O)Nc2cc(-c3nc4ccccc4[nH]3)ccc2Cl)cc1[N+](=O)[O-] 100 µM [inhibitor, single point], CC(=O)c1cccc(NC(=O)c2ccc(N(Cc3ccccc3C)S(C)(=O)=O)cc2)c1 50.1 µM [inhibitor, partial curve, poor fit], CC1=CC(C)(C)N2C(=O)C3(SCC(=O)N3c3ccc(F)cc3)c3cc(C)cc1c32 (centres undefined) 50.1 µM [inhibitor, partial curve, poor fit], COC(=O)COc1c(Cl)cc(C(c2c(C)[nH][nH]c2=O)c2c(C)[nH][nH]c2=O)cc1OC 28.2 µM [inhibitor, partial curve, poor fit], O=C1CCCCC1Sc1ccc(Cl)cc1[N+](=O)[O-] (centres undefined) 22.4 µM [inhibitor, partial curve], Cc1cc(=O)[nH]c(=O)n1Cc1ccccc1 100 µM [inhibitor, partial curve, poor fit], O=C1C=CC(=O)C(C2=C3C(=O)N(CCc4ccccc4)CC(=O)N3CCC2)=C1 50.1 µM [inhibitor, partial curve], CCOC(=O)c1[nH]c2cc(OC)c(OC)cc2c1NC(=O)c1ccc2c(c1)OCO2 35.5 µM [inhibitor, partial curve, poor fit], COc1ccccc1NC(=O)c1ccc(N2CC3CC(C2)c2cccc(=O)n2C3)c(NC(=O)c2cccnc2)c1 (centres undefined) 35.5 µM [inhibitor, partial curve], CC(C)c1ccc(NC(=O)c2cc(S(=O)(=O)NC3CCCCC3)ccc2F)cc1 89.1 µM [inhibitor, single point]

Potency, inactive:
O=Cc1ccnc2ccccc12, Cc1ccc(NC(=O)c2sc3nc[nH]c(=O)c3c2C)cc1C, CCc1cc2c(-c3ccccc3)cc(=O)oc2c2c1OCN(Cc1ccc(C)cc1)C2, O=C(COC(=O)c1cc([N+](=O)[O-])ccc1N1CCOCC1)NCCc1ccccc1, COc1cccc(N2CCN(S(=O)(=O)c3ccc4c(c3)NC(=O)CS4)CC2)c1, COc1ccc(S(=O)(=O)NC(C)C(=O)NCc2ccco2)cc1OC (centres undefined)
